According to patent US20060135587A1, “Method and compounds for promoting healing and reducing inflammation” (priority 2002, published 2006):

Experiment: Rat body weight changes during full-thickness wound treatment
Type: in vivo, rats

CC[n+]1cn(C)c(C(=O)NC)c1C(=O)NC.O=S(=O)([O-])c1ccccc1 [Compound 2, 1-methyl-3-ethyl-4,5-bis(N-methylcarbamoyl)-imidazolium benzenesulfonate]
Body weight g (5th day): 236 ± 8.4 g
Body weight g (10th day): 246 ± 1.1 g
Body weight g (15th day): 253.3 ± 2.1 g
Body weight g (20th day): 268.0 ± 4.2 g
